Test results as given in publication PMC10413684, “A bacterial tungsten-containing aldehyde oxidoreductase forms an enzymatic decorated protein nanowire” (Science Advances, 2023).
Results are given in words; binding and its absence hold for the method and conditions named. Some results given as binding are weak or reduced against the parent protein; the word gives no strength. Tags and fused reporters may be left off the sequences shown.

T1: AorA of the variant Δhelix-AOR, lacking the AorA residues from 138 to the C terminus (Aromatoleum aromaticum) (UniProt Q5P144)
T1 sequence: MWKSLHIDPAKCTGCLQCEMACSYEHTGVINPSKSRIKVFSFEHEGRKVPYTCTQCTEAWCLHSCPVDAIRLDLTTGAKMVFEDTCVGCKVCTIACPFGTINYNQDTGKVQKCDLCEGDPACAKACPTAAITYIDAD

B1: AorC, FAD-containing NAD-binding subunit of the aldehyde oxidoreductase from Aromatoleum aromaticum (AORAa) (natural protein)
chain: MKHVILGNGPAGVIAAETLRRAAPTDDILLFGSEDAPPYSRMAIPYLLEGNIDESGTWLRKSPGHFDRLRIHEMRGRAVSLDSERRRILFDDGHFESWDRLLIATGSHPVRPPIPGIDLPEVQTCWTLEDARAIARFATPGARVLQLGAGFIGCIIMEALAARGVELTVVEMGDRMVPRMMTPTAGGMIRKWVEDQGVRVVTNAGVSRIDCRASNDAPLDVTLSTGEVVVADLVIVAAGVAPNIAFLEATPVHVAKGVLVDDRLQTSVPGIFAAGDVAEAPDLFTGAHLVAAIQPNAADQARVAALNMAGHEARLKGVLAINVLDTLGLISSSFGQWWGEERERGGAGVEHVDEAAYRYLSLQFKDDVLIGATSIGLTEHVGALRGLIHGRVRLGEWKERLLHSPLQFVDAYIARSQQPMALVR
notes: AorC of Aromatoleum aromaticum, Rossmann fold with an extended C-terminal domain of three α helices; A single copy per Aor(AB)nC complex; also called FAD-containing subunit; source: Aromatoleum evansii, heterologous expression of the AOR plasmid; Superdex 200 gel filtration for the wild-type complex, not for Δhelix-AOR
B2: AorA of the variant Δhelix-AOR, lacking the AorA residues from 138 to the C terminus (domain or fragment, UniProt Q5P144 1-137)
chain: T1 sequence
B3: AorB, catalytic tungsten-cofactor-containing subunit of the aldehyde oxidoreductase from Aromatoleum aromaticum (AORAa) (protein)
chain: MGWNRKVLRVNLAEGTCTPEPLNMQWADEYLGSRGLATKYLVSETDPKVDPLSPDNKMIMATGPLTGTMASTGGRYTVVTKGPLTGAIACSNSGGFFGAEMKFAGWDMVIFEGRSPTPVYLFIENERAELRDASYLWGRSCWETEESIRAQHQDPLIRVSSIGRAGENQVMFACIVNDLHRAAGRSGVGAVMGSKNLKAVAIRGTKGVSGIRDFPGFVRATSEAKKVLAGNPVTSEGLPKFGTQVLMNVINEMGALPTRNHRDVQFEDASKISAEAMHEKRPSDGKPQLVTNAACFGCTIACGRISAIDKTHFTVKNNPKYWGASGGLEYEAAWALGAANGVGDLEALQYANLLCNEQGMDPISFGATVGAAMELYETGVLTKERIGLDAPFGSADALAKLAEMTATGEGFGKEIGLGSKRLCEKYGHPELSMSVKGQEFPAYDSRGIQGMGLAYATSNRGACHLRGYTVASEVLGVPVKTDPHVIEGKAELVKAFQDATAVFDSAGICVFTSFAWTLADVQPQIAAACDGDWSMDKLATVGERIWNMERQFNNAAGLGAQDDNLPPRLTSEPAKSGPAKGMVNRLAEMLPEYYGVRGWTPEGTPTPETLSRLGLS

The binders below were run against T1, AorA of the variant Δhelix-AOR, lacking the AorA residues from 138 to the C terminus (Aromatoleum aromaticum) (assay: mass photometry; OneMP mass photometer, 10 mM tris pH 8.0, 100 mM KCl, 0.1 mM EDTA, room temperature, sample diluted 10-fold just before measurement; 50 nM in Fig. 2D, E; both purified).

binding | Binder
binds | B1
no binding (tested: 50 nM) | B2
binds | B3
